According to paper PMC2808252:
No constants are given. Whether binding was seen depends on the method and setting. Binding seen in cells or lysates may run through a third protein. Some entries that bind do so weakly or less than the wild type. For part of these data: Where a sequence is shown, tags or fusion partners need not be part of it. Blank lines part the entries; values can stand above or below the binder they belong to.

What was measured:
Dysbindin-V5 (human) = molecular target: T1, Dysbindin-V5 (human) (UniProt Q96EV8); experiment: co-IP; lysate of HEK293T cells transfected with Dysbindin-V5; IP with anti-V5 (control IgG beside it), Western blot with anti-NF-YB; lysis buffer 20 mM Tris-HCl pH 7.8, 0.2% NP-40, 1 mM EDTA, 150 mM NaCl; protein G Sepharose, 1 h at 4°C
T1 sequence: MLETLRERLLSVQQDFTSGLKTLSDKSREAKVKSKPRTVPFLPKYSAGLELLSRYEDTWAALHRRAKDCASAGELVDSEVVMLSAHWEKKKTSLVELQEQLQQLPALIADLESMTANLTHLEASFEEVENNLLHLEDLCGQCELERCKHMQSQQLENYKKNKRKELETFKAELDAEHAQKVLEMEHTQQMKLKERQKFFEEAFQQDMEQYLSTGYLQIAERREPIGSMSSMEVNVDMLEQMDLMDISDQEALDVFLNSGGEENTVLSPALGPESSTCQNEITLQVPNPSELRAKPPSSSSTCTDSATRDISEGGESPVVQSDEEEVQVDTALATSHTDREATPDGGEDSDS

[1] = molecular target: T2, Dysbindin (endogenous, adult mouse brain) (mouse (endogenous in adult mouse brain)) (UniProt Q91WZ8); experiment: co-IP; data not shown: adult mouse brain lysates, endogenous proteins
T2 sequence: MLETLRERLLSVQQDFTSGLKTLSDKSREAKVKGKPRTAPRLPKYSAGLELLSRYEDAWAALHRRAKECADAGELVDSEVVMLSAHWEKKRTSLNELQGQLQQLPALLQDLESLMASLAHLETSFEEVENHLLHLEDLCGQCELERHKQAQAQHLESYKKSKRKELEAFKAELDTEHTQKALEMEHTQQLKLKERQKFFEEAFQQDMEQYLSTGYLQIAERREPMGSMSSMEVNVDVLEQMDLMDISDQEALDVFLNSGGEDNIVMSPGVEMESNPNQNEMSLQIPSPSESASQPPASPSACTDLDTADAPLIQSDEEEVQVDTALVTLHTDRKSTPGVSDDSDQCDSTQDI

[2] = molecular target: T3, Dysbindin (endogenous, SH-SY5Y cells) (human (endogenous in SH-SY5Y)) (UniProt Q96EV8); experiment: co-IP; SH-SY5Y lysate, both proteins endogenous; IP with anti-Dysbindin and blot with anti-NF-YB, and IP with anti-NF-YB and blot with anti-Dysbindin; nonspecific rabbit IgG as control; lysis buffer 20 mM Tris-HCl pH 7.8, 0.2% NP-40, 1 mM EDTA, 150 mM NaCl; 1 h at 4°C
T3 sequence: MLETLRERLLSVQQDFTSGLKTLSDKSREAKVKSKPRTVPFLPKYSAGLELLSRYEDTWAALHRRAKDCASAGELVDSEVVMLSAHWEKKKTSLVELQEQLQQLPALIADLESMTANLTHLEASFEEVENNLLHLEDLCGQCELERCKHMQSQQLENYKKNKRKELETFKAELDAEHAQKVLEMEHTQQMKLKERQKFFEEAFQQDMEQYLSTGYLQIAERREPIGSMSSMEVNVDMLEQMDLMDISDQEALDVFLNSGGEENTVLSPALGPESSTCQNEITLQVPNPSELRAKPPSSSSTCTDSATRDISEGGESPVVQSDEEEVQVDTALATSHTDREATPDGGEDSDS

binding (Dysbindin-V5 (human)): binds
B1: NF-YB (endogenous, HEK293T cells) (protein, UniProt P25208 1-207)
chain: MTMDGDSSTTDASQLGISADYIGGSHYVIQPHDDTEDSMNDHEDTNGSKESFREQDIYLPIANVARIMKNAIPQTGKIAKDAKECVQECVSEFISFITSEASERCHQEKRKTINGEDILFAMSTLGFDSYVEPLKLYLQKFREAMKGEKGIGGAVTATDGLSEELTEEAFTNQLPAGLITTDGQQQNVMVYTTSYQQISGVQQIQFS

binding [1]: binds
B2: NF-YB (endogenous, adult mouse brain) (protein, UniProt P63139 1-207)
chain: MTMDGDSSTTDASQLGISADYIGGSHYVIQPHDDTEDSMNDHEDTNGSKESFREQDIYLPIANVARIMKNAIPQTGKIAKDAKECVQECVSEFISFITSEASERCHQEKRKTINGEDILFAMSTLGFDSYVEPLKLYLQKFREAMKGEKGIGGAVSATDGLSEELTEEAFTNQLPAGLITADGQQQNVMVYTTSYQQISGVQQIQFS

binding [2]: binds
B3: NF-YB (endogenous, SH-SY5Y cells) (protein, UniProt P25208 1-207)
chain: MTMDGDSSTTDASQLGISADYIGGSHYVIQPHDDTEDSMNDHEDTNGSKESFREQDIYLPIANVARIMKNAIPQTGKIAKDAKECVQECVSEFISFITSEASERCHQEKRKTINGEDILFAMSTLGFDSYVEPLKLYLQKFREAMKGEKGIGGAVTATDGLSEELTEEAFTNQLPAGLITTDGQQQNVMVYTTSYQQISGVQQIQFS
